Seven compounds from PMC10747034 (Tropical Medicine and Infectious Disease, 2023) can be followed below.

This series has as its system NHDF cells. The series is described as follows: Cytotoxicity assay (MTS, 7 days). It is filed as cell-based, Human. As for the experimental part:
For that, 96-well tissue plates containing NHDF cells were treated with different concentrations of compounds up to 10 µM for seven days. Control cells were incubated with 0.5% DMSO. At the end of the treatment, cell viability was then analyzed through the colorimetric method of MTS (Promega, Madison, WI, USA). […] Data were analyzed using GraphPad Prim 8.0 software. IC50 and CC50 calculations were performed by fitting the values of proliferation/viability in percentage to a non-linear curve followed by dose–response inhibition analysis through log(inhibitor) vs. normalized response.
For the compound `Oc1cccc(C(Nc2nccs2)c2ccc3cccnc3c2O)c1` (stereo not shown) [MMV642550], the “SI (Selectivity Index, CC50 NHDF cells/IC50 T. gondii)” value is 21. For the compound `O=S(=O)(Nc1cccc2cccnc12)c1ccccc1` [MMV1578890], the “SI (Selectivity Index, CC50 NHDF cells/IC50 T. gondii)” value was found to be 9.

As to `CCc1nc(N)nc(N)c1C#CC(C)c1cc(OC)cc(-c2ccncc2)c1` (stereo not shown) [MMV1580844], the “SI (Selectivity Index, CC50 NHDF cells/IC50 T. gondii)” value stood at 7447.

In the case of `Fc1ccc(-c2nc(-c3c[nH]c4ccc(Br)cc34)[nH]c2-c2ccc(F)cc2)cc1` [MMV1593537], the “SI (Selectivity Index, CC50 NHDF cells/IC50 T. gondii)” value is 6. Take `Nc1nc(Nc2ccc3nc(-c4ccc(F)cc4)cc(N)c3c2)cc(-c2ccccc2)n1` [MMV1593541]: the “SI (Selectivity Index, CC50 NHDF cells/IC50 T. gondii)” value is given as 67.

`Cc1nc2ccc(Oc3ccccc3)cc2c2c1CCN2CCc1ccccc1` [MMV1634399]: the “SI (Selectivity Index, CC50 NHDF cells/IC50 T. gondii)” value is on record as 26.

Regarding `COc1ccc2sc3c(c2c1)NC(C)CNC3=O` (stereo not shown) [MMV1782115], the “SI (Selectivity Index, CC50 NHDF cells/IC50 T. gondii)” value is listed as 58.
